Laboratory results taken from paper PMC4865129.
These are yes or no findings as the source states them, for the method shown. In cells and extracts the contact can be indirect. Some binding calls cover weakened binding; strength is not graded here. Tags and fused reporters may be left off the sequences shown. Each block holds one binder with its values, some of them ahead of it.

Legend:
[1] = biological target: T1, AtMORC4 with a C-terminal FLAG or MYC epitope tag (pAtMORC4::AtMORC4-FLAG, pAtMORC4::AtMORC4-MYC) (Arabidopsis thaliana) (UniProt F4KAF2); assay: co-IP; F1 plants carrying a FLAG-tagged and a MYC-tagged transgene; M2 magnetic FLAG beads added to the supernatant; western blot with HRP-coupled FLAG-specific and MYC-specific antibodies
T1 sequence: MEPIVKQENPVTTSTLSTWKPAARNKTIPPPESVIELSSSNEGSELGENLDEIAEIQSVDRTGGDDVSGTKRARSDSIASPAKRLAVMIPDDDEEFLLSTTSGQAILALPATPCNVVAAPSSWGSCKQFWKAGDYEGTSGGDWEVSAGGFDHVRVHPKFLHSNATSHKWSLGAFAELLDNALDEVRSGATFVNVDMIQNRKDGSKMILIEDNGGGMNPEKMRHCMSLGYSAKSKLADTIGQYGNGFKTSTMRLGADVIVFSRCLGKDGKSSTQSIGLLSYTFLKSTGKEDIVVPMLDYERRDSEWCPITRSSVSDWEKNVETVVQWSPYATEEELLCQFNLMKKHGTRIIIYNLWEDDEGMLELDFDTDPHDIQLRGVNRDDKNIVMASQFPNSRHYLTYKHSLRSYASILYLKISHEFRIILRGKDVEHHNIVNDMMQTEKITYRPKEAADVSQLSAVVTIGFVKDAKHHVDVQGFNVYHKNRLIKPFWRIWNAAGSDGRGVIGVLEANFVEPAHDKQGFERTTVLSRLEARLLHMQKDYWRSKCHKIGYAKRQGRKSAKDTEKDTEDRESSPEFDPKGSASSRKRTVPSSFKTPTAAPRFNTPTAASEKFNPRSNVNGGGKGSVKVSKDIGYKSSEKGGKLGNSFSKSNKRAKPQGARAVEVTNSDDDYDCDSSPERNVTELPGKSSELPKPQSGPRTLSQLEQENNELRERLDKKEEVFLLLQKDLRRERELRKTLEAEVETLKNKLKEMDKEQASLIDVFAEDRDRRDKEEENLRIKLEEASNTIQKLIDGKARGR

[2] = biological target: AtMORC7 with a C-terminal FLAG or MYC epitope tag (pAtMORC7::AtMORC7-FLAG, pAtMORC7::AtMORC7-MYC) (Arabidopsis thaliana) (UniProt F4JRS4); assay: as above

- binding [1]: no binding
- binding [2]: binds
B1: AtMORC7 with a C-terminal FLAG or MYC epitope tag (pAtMORC7::AtMORC7-FLAG, pAtMORC7::AtMORC7-MYC) (protein, UniProt F4JRS4 1-707)
chain: MDNSIHVKREIQLPSTSPAGFPGRESVTVVDLCSSDDDSDIGEVAGGLEKVGNNFVGLKRGRDTFGGSSEVDRNNVKKVTTLAELGVGLPEGFGQSNPPESLTHPIPANPCNVFRPVPPPPPPPYAGTSGKIGGCKQFWKAGDYEGAAGDNWDLSSGGFDHVRVHPKFLHSNATSHKWALGAFAELLDNALDEVASGATYVKVDMLENNKGGNRMLLIEDNGGGMDPEKMRQCMSLGYSAKSKLANTIGQYGNGFKTSTMRLGADVIVFSRCPGKDGKSSTQSIGLLSYTFLRSTGKEDIVVPMLDYERRDPEWSKIIRSSTRDWDKNVETIIQWSPFSSEEDLLHQFDLMKDRGTRIIIYNLWEDDQGMLELDFDADPYDIQLRGVNREERNIKMASQFPNSRHFLTYKHSLRSYVSILYLRIPPGFRIILRGIDVEHHSVVNDMMQTEQITYRPQSESYGVVTNMSAIVIIGFVKDAKHHVDVQGFNVYHKNRLIKPFWRIWNATGSDGRGVIGVLEANFVEPAHDKQGFERTTVLARLESRLVQMQKTYWSTNCHKIGYAPRRREKSAYGYDNRDSSPENDREGPSSIKTPTPASDKFYSSSYPNHNGDNGVSGKDGARLQEELRREKERRKALEVEVQLSRQKIEEMKKEQENLIEIFSEERDRRDGEEEVLRNKLEEASNTIDDLLNKIKKMEGSKVPSWRH

- binding [1]: binds
B2: AtMORC4 with a C-terminal FLAG or MYC epitope tag (pAtMORC4::AtMORC4-FLAG, pAtMORC4::AtMORC4-MYC) (protein, UniProt F4KAF2 1-800)
chain: T1 sequence
